Test results as given in the supplement of paper PMC10849652.
The other results are listed elsewhere or left out.

By UniProt entry, the sequences of proteins in these tests, tags left out. Where a name states a change or a piece, a line headed by the entry shows the natural chain unless it says otherwise.
UniProt O75865, whole entry, looked up: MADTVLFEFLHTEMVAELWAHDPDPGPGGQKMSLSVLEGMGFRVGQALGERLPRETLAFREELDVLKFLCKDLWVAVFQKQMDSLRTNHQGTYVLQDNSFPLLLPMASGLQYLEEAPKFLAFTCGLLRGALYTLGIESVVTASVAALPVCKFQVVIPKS
UniProt Q9H4I3: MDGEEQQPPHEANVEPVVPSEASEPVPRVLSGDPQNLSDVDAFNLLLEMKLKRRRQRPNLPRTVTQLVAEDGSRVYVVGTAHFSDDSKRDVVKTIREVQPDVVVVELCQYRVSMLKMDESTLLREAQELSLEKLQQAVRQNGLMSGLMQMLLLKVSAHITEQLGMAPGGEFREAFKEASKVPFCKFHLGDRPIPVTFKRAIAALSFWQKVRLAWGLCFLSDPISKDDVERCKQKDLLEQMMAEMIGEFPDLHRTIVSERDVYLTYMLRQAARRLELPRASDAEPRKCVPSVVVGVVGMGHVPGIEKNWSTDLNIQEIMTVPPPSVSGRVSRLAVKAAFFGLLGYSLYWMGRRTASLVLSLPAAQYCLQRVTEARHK
UniProt P13693: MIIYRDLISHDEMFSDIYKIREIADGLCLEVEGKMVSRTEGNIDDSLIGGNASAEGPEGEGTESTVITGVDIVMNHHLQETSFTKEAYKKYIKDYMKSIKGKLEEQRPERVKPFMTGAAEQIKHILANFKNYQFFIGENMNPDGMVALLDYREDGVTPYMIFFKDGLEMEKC
UniProt Q86TN4: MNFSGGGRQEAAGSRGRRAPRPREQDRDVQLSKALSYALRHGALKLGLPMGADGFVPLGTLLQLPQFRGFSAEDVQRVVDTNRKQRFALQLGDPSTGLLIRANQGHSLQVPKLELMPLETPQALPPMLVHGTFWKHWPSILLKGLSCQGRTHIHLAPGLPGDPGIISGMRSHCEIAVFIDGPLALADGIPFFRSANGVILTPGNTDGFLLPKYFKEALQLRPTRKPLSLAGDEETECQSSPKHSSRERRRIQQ
UniProt Q8NDV7: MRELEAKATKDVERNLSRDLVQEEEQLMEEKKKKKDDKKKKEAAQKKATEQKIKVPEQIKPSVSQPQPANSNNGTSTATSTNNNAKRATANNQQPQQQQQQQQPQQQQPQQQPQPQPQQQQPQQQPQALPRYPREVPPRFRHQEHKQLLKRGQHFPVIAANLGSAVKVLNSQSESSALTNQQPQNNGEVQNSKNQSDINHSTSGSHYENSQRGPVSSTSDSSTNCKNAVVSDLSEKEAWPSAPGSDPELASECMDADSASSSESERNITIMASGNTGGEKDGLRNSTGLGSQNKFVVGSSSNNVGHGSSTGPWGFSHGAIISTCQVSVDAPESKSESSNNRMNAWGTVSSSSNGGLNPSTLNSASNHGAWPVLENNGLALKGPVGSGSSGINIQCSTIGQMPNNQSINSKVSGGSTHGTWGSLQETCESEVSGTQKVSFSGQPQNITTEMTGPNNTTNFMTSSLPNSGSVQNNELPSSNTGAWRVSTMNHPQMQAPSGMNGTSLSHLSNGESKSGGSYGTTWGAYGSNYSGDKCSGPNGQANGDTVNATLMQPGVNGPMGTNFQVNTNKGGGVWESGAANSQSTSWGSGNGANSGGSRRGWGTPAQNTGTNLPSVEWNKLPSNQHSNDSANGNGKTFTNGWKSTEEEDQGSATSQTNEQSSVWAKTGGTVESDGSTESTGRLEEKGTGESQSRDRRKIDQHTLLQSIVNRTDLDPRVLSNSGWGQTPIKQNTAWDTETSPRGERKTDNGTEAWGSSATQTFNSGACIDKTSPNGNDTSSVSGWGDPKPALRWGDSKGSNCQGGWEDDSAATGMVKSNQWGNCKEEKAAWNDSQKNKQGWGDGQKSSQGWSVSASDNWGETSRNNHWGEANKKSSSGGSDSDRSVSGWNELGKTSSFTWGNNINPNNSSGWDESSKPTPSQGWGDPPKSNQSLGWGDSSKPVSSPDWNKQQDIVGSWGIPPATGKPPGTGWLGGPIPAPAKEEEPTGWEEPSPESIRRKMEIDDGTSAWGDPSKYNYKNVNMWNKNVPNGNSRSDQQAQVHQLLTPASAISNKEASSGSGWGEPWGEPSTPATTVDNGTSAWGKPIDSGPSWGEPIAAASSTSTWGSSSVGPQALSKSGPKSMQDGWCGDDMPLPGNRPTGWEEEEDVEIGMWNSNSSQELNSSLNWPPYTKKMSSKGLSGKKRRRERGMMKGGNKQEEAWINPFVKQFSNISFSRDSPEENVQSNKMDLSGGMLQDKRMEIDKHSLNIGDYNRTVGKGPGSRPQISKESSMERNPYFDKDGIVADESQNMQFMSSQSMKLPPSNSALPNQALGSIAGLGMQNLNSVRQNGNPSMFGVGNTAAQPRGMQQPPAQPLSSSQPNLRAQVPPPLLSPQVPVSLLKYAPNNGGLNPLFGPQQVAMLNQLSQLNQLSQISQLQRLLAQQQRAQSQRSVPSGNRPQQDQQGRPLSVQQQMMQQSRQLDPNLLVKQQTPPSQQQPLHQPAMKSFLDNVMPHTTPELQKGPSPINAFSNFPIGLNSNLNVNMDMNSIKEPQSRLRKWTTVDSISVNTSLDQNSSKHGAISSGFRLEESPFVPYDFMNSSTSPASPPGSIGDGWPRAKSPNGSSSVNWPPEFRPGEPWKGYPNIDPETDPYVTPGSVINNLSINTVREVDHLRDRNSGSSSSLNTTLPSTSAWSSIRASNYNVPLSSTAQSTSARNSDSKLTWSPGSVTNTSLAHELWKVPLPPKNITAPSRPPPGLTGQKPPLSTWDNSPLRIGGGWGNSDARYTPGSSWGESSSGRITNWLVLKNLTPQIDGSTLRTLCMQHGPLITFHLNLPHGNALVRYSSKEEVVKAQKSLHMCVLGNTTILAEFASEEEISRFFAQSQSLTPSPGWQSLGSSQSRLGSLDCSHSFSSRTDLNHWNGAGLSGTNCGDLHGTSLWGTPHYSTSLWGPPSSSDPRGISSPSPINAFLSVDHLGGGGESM
UniProt Q9H496: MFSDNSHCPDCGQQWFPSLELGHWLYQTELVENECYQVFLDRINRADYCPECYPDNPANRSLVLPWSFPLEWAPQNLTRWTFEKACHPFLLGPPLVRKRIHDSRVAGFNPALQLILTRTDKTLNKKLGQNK
UniProt Q8TDR0: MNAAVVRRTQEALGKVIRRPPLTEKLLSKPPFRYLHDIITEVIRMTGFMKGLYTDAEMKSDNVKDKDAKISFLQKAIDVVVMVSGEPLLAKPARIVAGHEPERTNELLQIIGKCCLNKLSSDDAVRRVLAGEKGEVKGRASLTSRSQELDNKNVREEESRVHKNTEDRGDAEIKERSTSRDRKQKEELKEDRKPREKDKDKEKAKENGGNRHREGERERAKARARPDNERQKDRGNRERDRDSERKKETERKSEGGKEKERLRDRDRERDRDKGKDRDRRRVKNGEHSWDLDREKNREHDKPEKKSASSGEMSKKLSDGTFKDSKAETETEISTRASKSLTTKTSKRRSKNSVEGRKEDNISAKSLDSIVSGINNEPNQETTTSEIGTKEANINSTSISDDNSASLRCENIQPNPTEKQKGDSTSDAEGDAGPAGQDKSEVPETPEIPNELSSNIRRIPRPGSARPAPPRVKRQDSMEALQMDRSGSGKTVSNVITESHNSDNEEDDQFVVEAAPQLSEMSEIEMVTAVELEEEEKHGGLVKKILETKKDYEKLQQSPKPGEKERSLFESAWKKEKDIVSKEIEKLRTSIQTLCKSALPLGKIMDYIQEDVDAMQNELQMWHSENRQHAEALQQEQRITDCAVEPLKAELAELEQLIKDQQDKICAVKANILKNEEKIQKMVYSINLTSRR
UniProt Q6PJ69: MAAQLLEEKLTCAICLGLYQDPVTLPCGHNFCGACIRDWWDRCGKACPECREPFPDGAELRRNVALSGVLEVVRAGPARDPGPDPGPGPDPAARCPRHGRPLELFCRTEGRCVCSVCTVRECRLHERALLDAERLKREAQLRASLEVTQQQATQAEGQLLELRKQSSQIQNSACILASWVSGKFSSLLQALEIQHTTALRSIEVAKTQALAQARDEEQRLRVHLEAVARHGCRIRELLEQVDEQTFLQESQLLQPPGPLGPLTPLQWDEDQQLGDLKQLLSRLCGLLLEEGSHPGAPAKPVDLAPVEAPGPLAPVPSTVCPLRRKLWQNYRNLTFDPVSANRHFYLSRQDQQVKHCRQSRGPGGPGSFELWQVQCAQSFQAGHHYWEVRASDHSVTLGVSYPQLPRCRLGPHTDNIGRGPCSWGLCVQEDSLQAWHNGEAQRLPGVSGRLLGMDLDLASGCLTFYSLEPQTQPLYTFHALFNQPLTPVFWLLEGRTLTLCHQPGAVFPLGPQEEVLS
UniProt Q92574: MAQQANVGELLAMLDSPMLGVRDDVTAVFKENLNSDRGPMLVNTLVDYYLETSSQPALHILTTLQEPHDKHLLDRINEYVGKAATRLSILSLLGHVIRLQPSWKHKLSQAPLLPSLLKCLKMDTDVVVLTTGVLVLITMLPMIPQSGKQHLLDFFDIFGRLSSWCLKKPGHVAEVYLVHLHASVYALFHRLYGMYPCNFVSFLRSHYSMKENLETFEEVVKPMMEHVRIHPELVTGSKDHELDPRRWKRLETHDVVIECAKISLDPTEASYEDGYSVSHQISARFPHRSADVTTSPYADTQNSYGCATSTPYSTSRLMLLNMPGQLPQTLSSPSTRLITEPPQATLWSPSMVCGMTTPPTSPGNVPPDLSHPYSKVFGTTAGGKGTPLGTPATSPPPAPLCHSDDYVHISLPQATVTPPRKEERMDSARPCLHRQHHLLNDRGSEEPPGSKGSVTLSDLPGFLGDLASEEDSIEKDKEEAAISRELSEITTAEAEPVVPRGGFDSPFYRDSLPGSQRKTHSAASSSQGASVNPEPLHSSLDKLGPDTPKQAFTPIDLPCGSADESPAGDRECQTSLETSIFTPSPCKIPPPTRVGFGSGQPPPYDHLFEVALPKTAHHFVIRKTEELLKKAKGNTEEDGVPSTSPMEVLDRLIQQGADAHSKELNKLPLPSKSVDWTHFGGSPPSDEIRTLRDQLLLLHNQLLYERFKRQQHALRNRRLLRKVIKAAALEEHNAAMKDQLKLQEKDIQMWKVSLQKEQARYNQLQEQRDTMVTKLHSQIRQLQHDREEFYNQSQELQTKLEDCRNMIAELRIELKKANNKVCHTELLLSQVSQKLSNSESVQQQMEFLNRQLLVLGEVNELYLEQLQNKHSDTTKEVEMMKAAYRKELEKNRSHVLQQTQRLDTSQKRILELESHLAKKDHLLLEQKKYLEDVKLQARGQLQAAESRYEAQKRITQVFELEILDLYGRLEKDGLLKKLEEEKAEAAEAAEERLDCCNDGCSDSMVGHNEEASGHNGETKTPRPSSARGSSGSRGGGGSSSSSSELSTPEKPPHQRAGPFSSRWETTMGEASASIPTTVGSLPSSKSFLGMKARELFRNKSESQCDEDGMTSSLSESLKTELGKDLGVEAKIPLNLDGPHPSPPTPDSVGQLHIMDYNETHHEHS
UniProt Q629K1: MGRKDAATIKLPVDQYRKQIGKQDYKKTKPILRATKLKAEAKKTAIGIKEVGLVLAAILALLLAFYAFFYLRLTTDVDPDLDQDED
UniProt Q14134: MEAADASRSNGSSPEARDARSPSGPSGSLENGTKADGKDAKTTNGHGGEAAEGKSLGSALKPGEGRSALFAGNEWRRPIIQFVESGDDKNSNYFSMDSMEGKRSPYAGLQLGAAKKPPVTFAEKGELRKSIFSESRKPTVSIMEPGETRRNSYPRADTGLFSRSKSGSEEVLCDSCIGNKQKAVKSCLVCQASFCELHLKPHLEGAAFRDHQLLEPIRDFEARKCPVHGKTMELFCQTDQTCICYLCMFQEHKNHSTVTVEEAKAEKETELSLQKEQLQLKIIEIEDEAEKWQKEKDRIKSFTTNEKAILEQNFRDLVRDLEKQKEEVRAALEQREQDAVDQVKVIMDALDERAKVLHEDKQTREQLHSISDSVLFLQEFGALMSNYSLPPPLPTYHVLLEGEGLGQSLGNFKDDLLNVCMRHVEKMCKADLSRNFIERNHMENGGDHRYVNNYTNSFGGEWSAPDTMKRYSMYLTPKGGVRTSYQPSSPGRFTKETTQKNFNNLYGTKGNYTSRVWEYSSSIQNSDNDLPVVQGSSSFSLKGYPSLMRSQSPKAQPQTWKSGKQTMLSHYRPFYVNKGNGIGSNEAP
UniProt Q9H3H1: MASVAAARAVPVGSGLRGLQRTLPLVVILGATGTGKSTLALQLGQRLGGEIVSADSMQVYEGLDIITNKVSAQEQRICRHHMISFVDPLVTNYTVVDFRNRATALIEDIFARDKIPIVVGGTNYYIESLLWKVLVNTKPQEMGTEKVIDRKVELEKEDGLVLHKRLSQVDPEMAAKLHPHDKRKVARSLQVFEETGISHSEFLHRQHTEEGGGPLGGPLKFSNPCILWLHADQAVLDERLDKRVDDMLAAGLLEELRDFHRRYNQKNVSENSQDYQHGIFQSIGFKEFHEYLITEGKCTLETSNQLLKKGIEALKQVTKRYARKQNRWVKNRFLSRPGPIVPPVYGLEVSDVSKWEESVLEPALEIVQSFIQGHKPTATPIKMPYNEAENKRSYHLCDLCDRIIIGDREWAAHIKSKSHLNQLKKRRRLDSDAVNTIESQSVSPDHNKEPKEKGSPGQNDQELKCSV

Columns and labels:
Experiment in all cases: log2 fold change, soluble protein after heating vs DMSO (PISA); higher = thermal stabilisation; K562 cells, 10 uM, 30 min; active = over 0.2 and 3.5 SD of the protein, either way, in both replicates (recomputed)
bafetinib = compound: Cc1ccc(NC(=O)c2ccc(CN3CC[C@H](N(C)C)C3)c(C(F)(F)F)c2)cc1Nc1nccc(-c2cncnc2)n1 [bafetinib]
Method in brief: (§1)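 Soluble protein was quantified by TMTpro 16plex LC-MS/MS after channel sums were equalised. It was obtained as the supernatant after 21,000xg for 90 min from pooled aliquots of K562 cells (2×10^6 cells/mL, 10 μM compound, 30 min) heated for 3 min across 48°C-58°C and extracted in PBS with 0.5% NP-40 at 4°C. Thermal stability values are relative to control samples and come from duplicates. They are given as log2 fold changes.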

nilotinib = compound: Cc1cn(-c2cc(NC(=O)c3ccc(C)c(Nc4nccc(-c5cccnc5)n4)c3)cc(C(F)(F)F)c2)cn1 [nilotinib]
Method in brief: as §1

[1] = compound: Cc1nc(Nc2n[nH]c3c2CN(C(=O)N[C@H](CN(C)C)c2ccccc2)C3(C)C)c2sccc2n1
Method in brief: as §1

[2] = compound: Cc1ncc(-c2ccnc(Nc3ccc(S(C)(=O)=O)cc3)n2)n1C(C)C
Method in brief: as §1

[3] = compound: Cn1cc(-c2ccc3c(c2)CCN3C(=O)Cc2cccc(C(F)(F)F)c2)c2c(N)ncnc21
Method in brief: as §1

tipifarnib = compound: Cn1cncc1[C@@](N)(c1ccc(Cl)cc1)c1ccc2c(c1)c(-c1cccc(Cl)c1)cc(=O)n2C [tipifarnib]
Method in brief: as §1

mubritinib = compound: FC(F)(F)c1ccc(/C=C/c2nc(COc3ccc(CCCCn4ccnn4)cc3)co2)cc1 [mubritinib]
Method in brief: as §1

[4] = compound: Cc1cccc(CC(=O)N2CCc3c2ccc(-c2cn(C)c4ncnc(N)c24)c3F)n1
Method in brief: as §1

[5] = compound: Cn1cc(-c2ccc3nnc(C(F)(F)c4ccc5ncccc5c4)n3n2)cn1
Method in brief: as §1

dasatinib = compound: Cc1nc(Nc2ncc(C(=O)Nc3c(C)cccc3Cl)s2)cc(N2CCN(CCO)CC2)n1 [dasatinib]
Method in brief: as §1

Measured: log2 fold change

TRAPPC6A isoform 2 (UniProt O75865)
inactive: bafetinib 0.028 | nilotinib 0.126 | [1] -0.204 | [2] -0.013 | [3] 0.19 | tipifarnib -0.459 | mubritinib 0.17

TRABD (UniProt Q9H4I3)
inactive: bafetinib 0.202 | [4] -0.038 | nilotinib 0.185 | [1] 0.02 | [2] -0.093 | [3] 0.145 | [5] -0.013 | tipifarnib 0.012 | mubritinib -0.032

TRIM24 (UniProt O15164)
inactive: bafetinib 0.05 | [4] -0.031 | nilotinib 0.028 | [1] -0.018 | dasatinib -0.242 | [2] -0.018 | [5] -0.146 | tipifarnib 0.137 | mubritinib -0.005

TRMT5 (UniProt Q32P41)
inactive: bafetinib 0.041 | [4] 0.176 | nilotinib 0.111 | [1] -0.061 | [2] 0.219

TPRKB (UniProt Q9Y3C4)
inactive: bafetinib -0.025 | [4] 0.023 | nilotinib 0.023 | [1] 0.008 | dasatinib 0.026 | [2] 0.013 | [3] 0.027 | [5] 0.028 | tipifarnib 0.019 | mubritinib 0.045

2 neighbouring records out of the list so far:
TRABD (UniProt Q9H4I3)
inactive: bafetinib 0.202 | [4] -0.038 | nilotinib 0.185 | [1] 0.02 | [2] -0.093 | [3] 0.145 | [5] -0.013 | tipifarnib 0.012 | mubritinib -0.032

TRIM24 (UniProt O15164)
inactive: bafetinib 0.05 | [4] -0.031 | nilotinib 0.028 | [1] -0.018 | dasatinib -0.242 | [2] -0.018 | [5] -0.146 | tipifarnib 0.137 | mubritinib -0.005

Further records follow:

TRIM38 (UniProt O00635)
inactive: bafetinib -0.207 | [4] -0.183 | nilotinib -0.144 | [1] -0.001 | dasatinib 0.102 | [2] -0.091 | [3] 0.028 | tipifarnib -0.096 | mubritinib 0.123

TRA2A (UniProt Q13595)
inactive: bafetinib -0.085 | nilotinib -0.115 | [1] -0.061 | [2] -0.104

TNRC6B (UniProt Q9UPQ9)
inactive: bafetinib -0.028 | [4] 0.035 | dasatinib 0.127 | [3] 0.024 | tipifarnib 0.093

TPP2 (UniProt Q5VZU9)
inactive: bafetinib 0.053 | nilotinib 0.177 | [1] 0.163 | dasatinib 0.03 | [2] 0.063 | [3] -0.264 | [5] -0.041 | tipifarnib 0.026 | mubritinib -0.238

TRPM7 (UniProt Q96QT4)
inactive: bafetinib -0.118 | [4] 0.004 | dasatinib -0.026 | [3] 0.034 | [5] 0.046 | tipifarnib -0.01 | mubritinib -0.024

TSC22D1 (UniProt Q15714)
inactive: bafetinib -0.074 | [4] -0.004 | nilotinib 0.021 | [1] -0.005 | dasatinib -0.003 | [2] 0.017 | [3] 0.034 | [5] -0.016 | tipifarnib -0.026 | mubritinib 0.068

TPT1 (UniProt P13693)
inactive: bafetinib 0.081 | [4] 0.058 | nilotinib 0.164 | [1] -0.008 | dasatinib -0.072 | [2] -0.036 | [3] 0.084 | [5] -0.026 | tipifarnib -0.084 | mubritinib 0.186

TPRG1L (UniProt Q5T0D9)
inactive: nilotinib -0.094 | [1] -0.086 | [2] -0.023 | [5] -0.121 | tipifarnib -0.042 | mubritinib 0.07

TRPS1 isoform 2 (UniProt Q9UHF7)
inactive: [3] -0.102

TREML2 (UniProt Q5T2D2)
inactive: bafetinib 0.181 | dasatinib -0.013 | mubritinib 0.119

TRIM14 (UniProt Q14142)
inactive: nilotinib 0.042 | [1] -0.124 | [2] -0.342

TRAM2 (UniProt Q15035)
inactive: bafetinib -0.23 | [3] 0.014 | tipifarnib -0.403

TPRA1 (UniProt Q86W33)
inactive: [4] 0.046 | nilotinib 0.099 | [1] -0.153 | [2] 0.058 | mubritinib 0.013

TNIP1 (UniProt Q15025)
inactive: bafetinib -0.076 | [5] -0.029 | tipifarnib 0.063 | mubritinib 0.3

TRIM33 isoform 2 (UniProt Q9UPN9)
inactive: nilotinib -0.464 | [1] -0.096 | [2] -0.034 | mubritinib 0.129

TRUB2 (UniProt O95900)
inactive: [4] 0.059 | dasatinib -0.03 | tipifarnib 0.069

TRPT1 isoform 4 (UniProt Q86TN4)
inactive: [5] -0.011 | mubritinib 0.041

TNRC6A (UniProt Q8NDV7)
inactive: mubritinib 0.022

TRIM5 (UniProt Q9C035)
inactive: dasatinib -0.088 | [3] 0.013 | [5] 0.133

TNKS (UniProt O95271)
inactive: dasatinib 0.066 | tipifarnib 0.105

TOM1L2 (UniProt Q6ZVM7)
inactive: nilotinib -0.047 | [1] -0.127 | dasatinib -0.091 | [2] -0.125 | [3] 0.028

TPD52 isoform 3 (UniProt P55327)
inactive: bafetinib 0.207 | dasatinib 0.036

TRIO (UniProt O75962)
inactive: bafetinib -0.056 | nilotinib -0.006 | [1] 0.052 | [2] -0.042 | [5] 0.156 | mubritinib 0.163

TOR1AIP2 (UniProt Q9H496)
inactive: bafetinib -0.011 | nilotinib 0.045 | [1] 0.172 | [2] 0.012 | [5] 0.256 | mubritinib -0.076

TRIM27 (UniProt P14373)
inactive: [4] -0.149

TRAF3 (UniProt Q13114)
inactive: [5] 0.051

TRAF3IP1 (UniProt Q8TDR0)
inactive: dasatinib -0.193 | [3] 0.111 | [5] 0.017

TRPC4AP (UniProt Q8TEL6)
inactive: [4] -0.081 | nilotinib -0.025 | [1] 0.219 | dasatinib -0.04 | [2] -0.007 | [5] -0.044 | tipifarnib 0.171 | mubritinib 0.097

TRADD (UniProt Q15628)
inactive: nilotinib -0.595 | [1] -0.246 | dasatinib -0.047 | [2] 0.032 | [5] -0.219 | mubritinib 0.163

TRAF7 (UniProt Q6Q0C0)
inactive: bafetinib 0.006 | [3] -0.146 | tipifarnib -0.085 | mubritinib -0.06

TRPM4 (UniProt Q8TD43)
inactive: dasatinib -0.131

TRIM65 (UniProt Q6PJ69)
inactive: dasatinib 0.18 | [3] 0.003 | [5] -0.045

TNXB isoform 4 (UniProt P22105)
inactive: mubritinib 0.028

TPD52L2 isoform 3 (UniProt O43399)
inactive: [4] 0.14 | nilotinib -0.173 | [1] 0.23 | [2] -0.109 | mubritinib -0.232

TSC1 (UniProt Q92574)
inactive: dasatinib -0.324 | [3] -0.062 | [5] -0.04 | tipifarnib -0.129

TRIQK (UniProt Q629K1)
inactive: bafetinib -0.059 | dasatinib 0.007 | [3] -0.007 | [5] -0.03 | mubritinib -0.002

TRIM29 (UniProt Q14134)
inactive: mubritinib 0.016

TPPP3 (UniProt Q9BW30)
inactive: [5] 0.055

TRIT1 (UniProt Q9H3H1)
inactive: [3] -0.058

TNK2 isoform 3 (UniProt Q07912)
inactive: bafetinib -0.07 | dasatinib -0.015
